Measurements reported in PubChem BioAssay AID504793 (Drosophila RNAi Screening Center, 2011).
In all, the deposit lists about 23,000 reagents; below is a random part of those with a known target gene and a result. Of all reagents, 62 (0.27%) were called active. 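Calls come from follow-up tests whose scores are not deposited, so confirmed genes may have low counts here; counts are not normalised per plate.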 Raw values vary from plate to plate and are shown uncorrected. Reagents against one gene are numbered here. A plus sign joins genes that one reagent is predicted to hit. Reagent sequences are not shown.

Test: 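Whole-genome screen for parts of the DNA damage checkpoint at G2/M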 (primary screen)
Cells: Drosophila S2R+ cells
Reagents: long dsRNA against Drosophila genes, about 0.25 µg dsRNA per well
Timing: 4 days of dsRNA, then 4 hours of drug before read-out
Treatment: doxorubicin 0.5 µM for 4 hours to cause double-strand breaks, in cells also given a low, harmless dose of dsRNA against nbs to sensitise the assay
Measurement: 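Per-well count of mitotic cells stained for phospho-histone H3 after doxorubicin exposure, used as mitotic index; counts are raw and not normalised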
Scale: mitotic cells: higher = more cells in mitosis, weaker G2 arrest
Active means: 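Genes are called active only when high mitotic counts were reproduced with independent dsRNAs and mitosis was checked for delay without damage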
Calls: active = confirmed in follow-up tests; inactive = not confirmed

How did the screen score Tgt (tRNA-guanine transglycosylase)?
mitotic cells, replicate 1: 13; activity call: inactive

With Targ (Tarag), what does the deposit list?
mitotic cells, replicate 1: 11; activity call: inactive

With CG34002 #1, what was measured?
mitotic cells, replicate 1: 7; activity call: inactive

What is on record for CG34002 #2?
mitotic cells, replicate 1: 4; activity call: inactive

What is on record for CG34002 #3?
mitotic cells, replicate 1: 11; activity call: inactive

For Task7 (TWIK-related acid-sensitive K[+] channel 7) #1, what does the deposit list?
mitotic cells, replicate 1: 10; activity call: inactive

Which result is listed for Task7 (TWIK-related acid-sensitive K[+] channel 7) #2?
mitotic cells, replicate 1: 9; activity call: inactive

With yellow-b, how do the results read?
mitotic cells, replicate 1: 3; activity call: inactive

With CG18609 #1, what was measured?
mitotic cells, replicate 1: 3; activity call: inactive

Which result is listed for CG18609 #2?
mitotic cells, replicate 1: 4; activity call: inactive

For sicily (severe impairment of CI with lengthened youth), what was measured?
mitotic cells, replicate 1: 12; activity call: inactive

For CG11786, what does the deposit list?
mitotic cells, replicate 1: 7; activity call: inactive

For CG14615, what was measured?
mitotic cells, replicate 1: 7; activity call: inactive

For BicD (Bicaudal D), what was measured?
mitotic cells, replicate 1: 1; activity call: inactive

With CG11035, what does the deposit list?
mitotic cells, replicate 1: 4; activity call: inactive

How did the screen score CG12836?
mitotic cells, replicate 1: 4; activity call: inactive

Which result is listed for M7BP (Myosin-7a binding protein)?
mitotic cells, replicate 1: 7; activity call: inactive

For Dhit (Double hit) #1, how do the results read?
mitotic cells, replicate 1: 4; activity call: inactive

What did the screen give for Dhit (Double hit) #2?
mitotic cells, replicate 1: 8; activity call: inactive

For mwh (multiple wing hairs) #1, what does the deposit list?
mitotic cells, replicate 1: 8; activity call: inactive

What is on record for mwh (multiple wing hairs) #2?
mitotic cells, replicate 1: 7; activity call: inactive

Which result is listed for Coq8 (Coenzyme Q8)?
mitotic cells, replicate 1: 17; activity call: inactive

Which result is listed for Alp12 (Alkaline phosphatase 12)?
mitotic cells, replicate 1: 5; activity call: inactive

5 successive reagents from above, for reference:
CG34002 #2 → mitotic cells, replicate 1 = 4; activity call = inactive
CG34002 #3 → mitotic cells, replicate 1 = 11; activity call = inactive
Task7 (TWIK-related acid-sensitive K[+] channel 7) #1 → mitotic cells, replicate 1 = 10; activity call = inactive
Task7 (TWIK-related acid-sensitive K[+] channel 7) #2 → mitotic cells, replicate 1 = 9; activity call = inactive
yellow-b → mitotic cells, replicate 1 = 3; activity call = inactive

More results:
How did the screen score ATPsynG (ATP synthase, subunit G)?
mitotic cells, replicate 1: 8; mitotic cells, replicate 2: 6; activity call: inactive

Which result is listed for CR31292 (pseudo)?
mitotic cells, replicate 1: 4; activity call: inactive

For CysRS-m (Cysteinyl-tRNA synthetase, mitochondrial), what does the deposit list?
mitotic cells, replicate 1: 10; activity call: inactive

Which result is listed for Roc1b + Cdc5 #1?
mitotic cells, replicate 1: 7; activity call: inactive

Which result is listed for Roc1b + Cdc5 #2?
mitotic cells, replicate 1: 4; activity call: inactive

For CG7384, what was measured?
mitotic cells, replicate 1: 9; activity call: inactive

For CG6118 #1, what does the deposit list?
mitotic cells, replicate 1: 12; activity call: inactive

With CG6118 #2, how do the results read?
mitotic cells, replicate 1: 13; activity call: inactive

What did the screen give for GlcAT-S (Glucuronyltransferase S) #1?
mitotic cells, replicate 1: 4; activity call: inactive

What did the screen give for GlcAT-S (Glucuronyltransferase S) #2?
mitotic cells, replicate 1: 10; activity call: inactive

For Dtg (Dpp target gene) #1, what does the deposit list?
mitotic cells, replicate 1: 10; activity call: inactive

What did the screen give for Dtg (Dpp target gene) #2?
mitotic cells, replicate 1: 7; activity call: inactive
